From patent US9023873B2, “Insecticidal 2-methoxybenzamide derivatives” (Syngenta Participations AG, priority 2011, dated 2015)
Some results were stated once for a whole list of compounds, not compound by compound.

Tests used:
Type in all cases: in vivo
[1] = system: Spodoptera littoralis (Egyptian cotton leafworm); test: Spodoptera littoralis cotton leaf disc spray test; conditions: 200 ppm spray on cotton leaf discs, L1 larvae, mortality, feeding behavior, growth regulation 3 days after treatment
[2] = system: Tetranychus urticae (Two-spotted spider mite); test: Tetranychus urticae bean leaf disc spray test; conditions: 200 ppm spray on bean leaf discs, mite populations of mixed ages, 8 days; egg, larval and adult mortality
[3] = system: Heliothis virescens (Tobacco budworm); test: Heliothis virescens egg test on artificial diet; conditions: 200 ppm (concentration in well 18 ppm), eggs 0-24 h old on artificial diet, 4 days; egg mortality, larval mortality, growth regulation
[4] = system: Myzus persicae (Green peach aphid); test: Myzus persicae sunflower leaf disc spray test; conditions: 200 ppm spray on sunflower leaf discs, aphid population of mixed ages, 6 DAT; mortality
[5] = system: Diabrotica balteata (Corn root worm); test: Diabrotica balteata larval test on artificial diet; conditions: 200 ppm (concentration in well 18 ppm), L2 larvae, 5 days, larval mortality, growth regulation
[6] = system: Plutella xylostella (Diamond back moth); test: Plutella xylostella larval test on artificial diet; conditions: 200 ppm (concentration in well 18 ppm), L2 larvae, 6 days, larval mortality, growth regulation
[7] = system: Thrips tabaci (Onion thrips); test: Thrips tabaci sunflower leaf disc spray test; conditions: 200 ppm spray on sunflower leaf discs, population of mixed ages, 7 days; mortality

COc1c(C(=O)N(C)c2c(Br)cc(C(F)(C(F)(F)F)C(F)(F)F)cc2Br)cccc1N(C)C(=O)c1ccncc1 [Compound G17, N-[3-[[2,6-dibromo-4-[1,2,2,2-tetrafluoro-1-(trifluoromethyl)ethyl]phenyl]-methyl-carbamoyl]-2-methoxy-phenyl]-N-methyl-pyridine-4-carboxamide]
at least 80%: control of Spodoptera littoralis [1] | control of Tetranychus urticae [2] | control of Heliothis virescens [3] | control of Myzus persicae [4] | control of Diabrotica balteata [5] | control of Plutella xylostella [6] | control of Thrips tabaci [7]

COc1c(C(=O)N(C)c2c(Br)cc(C(F)(C(F)(F)F)C(F)(F)F)cc2Br)cccc1N(C)C(=O)c1cc[n+]([O-])cc1 [Compound G18, N-[3-[[2,6-dibromo-4-[1,2,2,2-tetrafluoro-1-(trifluoromethyl)ethyl]phenyl]-methyl-carbamoyl]-2-methoxy-phenyl]-N-methyl-1-oxido-pyridin-1-ium-4-carboxamide]
at least 80%: control of Spodoptera littoralis [1] | control of Tetranychus urticae [2] | control of Heliothis virescens [3] | control of Myzus persicae [4] | control of Diabrotica balteata [5] | control of Plutella xylostella [6] | control of Thrips tabaci [7]

COc1c(NC(=O)c2cc[n+]([O-])cc2)cccc1C(=O)N(C)c1c(Br)cc(C(F)(C(F)(F)F)C(F)(F)F)cc1Br [Compound G19, N-[3-[[2,6-dibromo-4-[1,2,2,2-tetrafluoro-1-(trifluoromethyl)ethyl]phenyl]-methyl-carbamoyl]-2-methoxy-phenyl]-1-oxido-pyridin-1-ium-4-carboxamide]
at least 80%: control of Spodoptera littoralis [1] | control of Tetranychus urticae [2] | control of Heliothis virescens [3] | control of Myzus persicae [4] | control of Diabrotica balteata [5] | control of Plutella xylostella [6] | control of Thrips tabaci [7]

COc1c(NC(=O)c2cc[n+]([O-])cc2)cccc1C(=O)Nc1c(C)cc(C(F)(C(F)(F)F)C(F)(F)F)cc1Br [Compound H1]
at least 80%: control of Spodoptera littoralis [1] | control of Tetranychus urticae [2] | control of Heliothis virescens [3] | control of Myzus persicae [4] | control of Diabrotica balteata [5] | control of Plutella xylostella [6] | control of Thrips tabaci [7]

CCN(C(=O)c1ccncc1)c1cccc(C(=O)Nc2c(C)cc(C(F)(C(F)(F)F)C(F)(F)F)cc2Br)c1OC [Compound H3]
at least 80%: control of Spodoptera littoralis [1] | control of Tetranychus urticae [2] | control of Heliothis virescens [3] | control of Myzus persicae [4] | control of Diabrotica balteata [5] | control of Plutella xylostella [6] | control of Thrips tabaci [7]

CCN(C(=O)c1cc[n+]([O-])cc1)c1cccc(C(=O)Nc2c(C)cc(C(F)(C(F)(F)F)C(F)(F)F)cc2Br)c1OC [Compound H4]
at least 80%: control of Spodoptera littoralis [1] | control of Tetranychus urticae [2] | control of Heliothis virescens [3] | control of Myzus persicae [4] | control of Diabrotica balteata [5] | control of Plutella xylostella [6] | control of Thrips tabaci [7]

CCc1cc(C(F)(C(F)(F)F)C(F)(F)F)cc(Br)c1NC(=O)c1cccc(NC(=O)c2cc[n+]([O-])cc2)c1OC [Compound J2]
at least 80%: control of Spodoptera littoralis [1] | control of Tetranychus urticae [2] | control of Heliothis virescens [3] | control of Myzus persicae [4] | control of Diabrotica balteata [5] | control of Plutella xylostella [6] | control of Thrips tabaci [7]

CCc1cc(C(F)(C(F)(F)F)C(F)(F)F)cc(Br)c1NC(=O)c1cccc(N(CC)C(=O)c2cc[n+]([O-])cc2)c1OC [Compound J4]
at least 80%: control of Spodoptera littoralis [1] | control of Tetranychus urticae [2] | control of Heliothis virescens [3] | control of Myzus persicae [4] | control of Diabrotica balteata [5] | control of Plutella xylostella [6] | control of Thrips tabaci [7]

COc1c(NC(=O)c2ccncc2)cccc1C(=O)Nc1c(C)cc(C(F)(C(F)(F)F)C(F)(F)F)cc1Cl [Compound K1]
at least 80%: control of Spodoptera littoralis [1] | control of Tetranychus urticae [2] | control of Heliothis virescens [3] | control of Myzus persicae [4] | control of Diabrotica balteata [5] | control of Plutella xylostella [6] | control of Thrips tabaci [7]
